Values from PubChem BioAssay AID743454 (Peter MacCallum Cancer Centre, 2014)
Here is a random part of about 18,000 reagents. 450 of them (2.5%) count as active. 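Single biological run; no consistent viability z cut-off exists, so the class columns, not z-scores, define the calls.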

Screen: 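Genes whose loss kills vorinostat-resistant colon cancer cells under vorinostat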 (primary screen)
System: human HCT116-VR colon cancer cells, selected for vorinostat resistance
Knock-down reagent: siRNA pool against human genes, 40 nM siRNA pool
Timing: vorinostat for 24 h, read-out about 72 h after transfection
Treatment: vorinostat at 2.5 µM final
Detection: 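Two measures, CellTiter-Fluor viability and luminescent caspase 3/7 activity, each as fold change against same-plate mock wells, mean of duplicates, then screen-wide robust z-score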
Reading the numbers: viability robust z-score: higher = more viable cells than screen typical; caspase robust z-score: higher = more caspase 3/7 activity than screen typical
Active means: 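Hits are knock-downs in viability class RV1/RV2 or caspase class CA1/CA2, excluding ones that killed cells in the no-drug cell-count arm; hits then retested with single siRNAs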

target	viability hit class	caspase hit class	viability robust z-score	caspase robust z-score	outcome
CDH26 (cadherin 26)	no change	no change	-0.26	3.08	inactive
SEPTIN6 (septin 6)	no change	no change	-0.76	1.15	inactive
LMBR1L (limb development membrane protein 1 like)	no change	no change	-0.03	0.22	inactive
NFIL3 (nuclear factor, interleukin 3 regulated)	no change	no change	-0.02	-1.17	inactive
TAS2R41 (taste 2 receptor member 41)	no change	no change	0.1	-0.64	inactive
TNFRSF10D (TNF receptor superfamily member 10d)	no change	no change	-0.65	1.49	inactive
BCAS2 (BCAS2 pre-mRNA processing factor)	no change	no change	-1.84	-0.18	inactive
TLX3 (T cell leukemia homeobox 3)	no change	no change	0.01	-0.92	inactive
CHST2 (carbohydrate sulfotransferase 2)	no change	no change	-0.3	-0.76	inactive
FAM228A (family with sequence similarity 228 member A)	no change	no change	-2	2.38	inactive
ESRRG (estrogen related receptor gamma)	no change	no change	0.21	-1.12	inactive
IKBKG	no change	no change	1.04	0.04	inactive
SPDEF (SAM pointed domain containing ETS transcription factor)	no change	no change	-0.36	0.66	inactive
PPY (pancreatic polypeptide)	no change	no change	-0.04	1.34	inactive
COMMD3 (COMM domain containing 3)	no change	no change	0.41	-0.2	inactive
CSN1S1 (casein alpha s1)	no change	no change	-0.68	0.7	inactive
GSTA2 (glutathione S-transferase alpha 2)	no change	no change	0.34	-0.32	inactive
AHSP (alpha hemoglobin stabilizing protein)	no change	no change	-3.92	-1.37	inactive
ARF6 (ARF GTPase 6)	no change	no change	0.06	0.21	inactive
SCRIB (scribble planar cell polarity protein)	no change	no change	-1.6	-0.68	inactive
OXCT1 (3-oxoacid CoA-transferase 1)	no change	no change	1.37	0.31	inactive
WDR7 (WD repeat domain 7)	no change	no change	-0.75	0.28	inactive
PGGT1B (protein geranylgeranyltransferase type I subunit beta)	no change	no change	0.26	-0.1	inactive
TYW2 (tRNA wybutosine-synthesizing protein 2)	no change	no change	0.57	-1.05	inactive
SENP8 (SUMO peptidase family member, NEDD8 specific)	no change	no change	1.13	-0.93	inactive
CTSE (cathepsin E)	no change	no change	-0.82	0.99	inactive
IGFL4 (IGF like family member 4)	no change	no change	1.09	0.8	inactive
LIME1 (Lck interacting transmembrane adaptor 1)	no change	no change	-0.08	2.35	inactive
CCDC185 (coiled-coil domain containing 185)	no change	no change	-0.92	-0.76	inactive
FXN (frataxin)	no change	no change	0.44	-0.91	inactive
FAM9A (family with sequence similarity 9 member A)	no change	no change	-0.2	0.45	inactive
RNASE11 (ribonuclease A family member 11 (inactive))	no change	no change	0.3	-0.5	inactive
SLC13A1	no change	no change	1.32	0.08	inactive
CENPP (centromere protein P)	no change	no change	0.97	0.18	inactive
GTF2B (general transcription factor IIB)	no change	no change	1.3	0	inactive
KCNE3	no change	no change	0.45	1.8	inactive
DNAH6 (dynein axonemal heavy chain 6)	no change	no change	-0.03	-0.76	inactive
KIF26A (kinesin family member 26A)	no change	no change	0.48	1.36	inactive
OR3A1 (olfactory receptor family 3 subfamily A member 1)	no change	no change	0.2	2.44	inactive
GXYLT2 (glucoside xylosyltransferase 2)	no change	no change	0.68	-0.66	inactive
SLC37A3	no change	no change	0.76	1.64	inactive
TEDC2 (tubulin epsilon and delta complex 2)	no change	no change	-2.06	0.55	inactive
FPR3 (formyl peptide receptor 3)	no change	no change	-0.69	0.62	inactive
RSPO3 (R-spondin 3)	no change	no change	-0.12	-0.26	inactive
HOXD12 (homeobox D12)	no change	no change	-0.78	0.24	inactive
CPNE8 (copine 8)	no change	no change	0.12	-0.42	inactive
GARIN3 (golgi associated RAB2 interactor family member 3)	no change	no change	-1.3	1.34	inactive
KDM6A (lysine demethylase 6A)	no change	no change	0	0.74	inactive
CBX6 (chromobox 6)	no change	no change	-0.24	1.97	inactive
MDGA1 (MAM domain containing glycosylphosphatidylinositol anchor 1)	no change	no change	-1.35	-0.85	inactive
CDK1 (cyclin dependent kinase 1)	no change	no change	-1.12	-1	inactive
DOP1A (DOP1 leucine zipper like protein A)	no change	no change	0.2	0.06	inactive
C7 (complement C7)	no change	no change	-0.26	1.27	inactive
CRISPLD2 (cysteine rich secretory protein LCCL domain containing 2)	no change	no change	0.16	-0.92	inactive
SYNGR1 (synaptogyrin 1)	no change	no change	0.04	-0.4	inactive
DYNC1LI2 (dynein cytoplasmic 1 light intermediate chain 2)	no change	no change	0.74	-0.29	inactive
OR2M7 (olfactory receptor family 2 subfamily M member 7)	no change	no change	-0.55	0.55	inactive
TAF7L (TATA-box binding protein associated factor 7 like)	no change	no change	0.7	1.24	inactive
ZNF607 (zinc finger protein 607)	no change	no change	1.64	-1.04	inactive
EXOC5 (exocyst complex component 5)	no change	no change	-1.72	2.92	inactive
TMEM200A (transmembrane protein 200A)	no change	no change	0.14	1.01	inactive
TMC8 (transmembrane channel like 8)	no change	no change	-1.22	-0.43	inactive
ZFAND4 (zinc finger AN1-type containing 4)	no change	no change	-0.12	-0.72	inactive
VPS29 (VPS29 retromer complex component)	no change	no change	-0.76	-0.24	inactive
RTL3 (retrotransposon Gag like 3)	no change	no change	-1.2	-0.13	inactive
HLA-G (major histocompatibility complex, class I, G)	no change	no change	-4.3	2.34	inactive
FBXL6 (F-box and leucine rich repeat protein 6)	no change	no change	-0.24	0.24	inactive
SLC10A1	no change	no change	-2.08	-1.05	inactive
RAP2C (RAP2C, member of RAS oncogene family)	no change	no change	-0.58	2.42	inactive
RNASEK (ribonuclease K)	no change	no change	0.13	-1.02	inactive
ANKRD55 (ankyrin repeat domain 55)	no change	no change	-0.2	-0.38	inactive
GPR4 (G protein-coupled receptor 4)	no change	no change	0.04	-0.32	inactive
APOF (apolipoprotein F)	no change	no change	-2.16	0.64	inactive

Targets listed so far whose gene name begins with G or g (5):
target	viability hit class	caspase hit class	viability robust z-score	caspase robust z-score	outcome
GSTA2 (glutathione S-transferase alpha 2)	no change	no change	0.34	-0.32	inactive
GTF2B (general transcription factor IIB)	no change	no change	1.3	0	inactive
GXYLT2 (glucoside xylosyltransferase 2)	no change	no change	0.68	-0.66	inactive
GARIN3 (golgi associated RAB2 interactor family member 3)	no change	no change	-1.3	1.34	inactive
GPR4 (G protein-coupled receptor 4)	no change	no change	0.04	-0.32	inactive
